Patent US20260191907A1
Results are given in words; binding and its absence hold for the method and conditions named. Some binding calls cover weakened binding; strength is not graded here.

How the values were obtained:
[1] = target: T1, Recombinant FGFR4 (G&P Biosciences) (human) (UniProt P22455); assay: SPR, recombinant FGFR4 immobilised, nanobody as analyte
T1 sequence: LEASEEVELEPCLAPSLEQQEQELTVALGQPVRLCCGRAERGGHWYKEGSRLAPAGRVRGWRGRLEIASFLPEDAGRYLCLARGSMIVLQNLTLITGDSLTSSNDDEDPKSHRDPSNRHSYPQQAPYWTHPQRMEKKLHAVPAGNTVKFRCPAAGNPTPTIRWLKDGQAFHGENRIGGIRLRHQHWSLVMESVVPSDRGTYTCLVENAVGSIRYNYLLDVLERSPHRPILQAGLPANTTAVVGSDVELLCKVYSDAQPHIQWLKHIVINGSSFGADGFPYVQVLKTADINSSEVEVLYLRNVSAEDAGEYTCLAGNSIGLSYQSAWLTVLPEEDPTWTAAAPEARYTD

[2] = target: FGFR4 expressed on the surface of RMS cells (Rh4-FR4 wt, Rh30) (human) (UniProt P22455); assay: flow cytometry, recombinant nanobody on Rh4-FR4 wt cells
[3] = target: FGFR4 expressed on the surface of RMS cells (Rh4-FR4 wt, Rh30) (human) (UniProt P22455); assay: flow cytometry on Rh4-FR4 wt cells
[4] = target: FGFR4 expressed on the surface of RMS cells (Rh4-FR4 wt, Rh30) (human) (UniProt P22455); assay: flow cytometry, recombinant nanobody at 30 µg/ml on Rh4-FR4 wt cells, anti-6xHis-FITC detection
[5] = target: FGFR4 expressed on the surface of RMS cells (Rh4-FR4 wt, Rh30) (human) (UniProt P22455); assay: flow cytometry on RMS cells
[6] = target: FGFR4 expressed on the surface of RMS cells (Rh4-FR4 wt, Rh30) (human) (UniProt P22455); assay: flow cytometry, phage clone displaying the nanobody on Rh4-FR4 wt cells, anti-M13 detection
[7] = target: FGFR4 expressed on the surface of RMS cells (Rh4-FR4 wt, Rh30) (human) (UniProt P22455); assay: flow cytometry of DiR fluorescence, liposomes at 0.5 mM lipid on Rh4-FR4 wt cells, 2 h at 37 °C
[8] = target: FGFR4 expressed on the surface of RMS cells (Rh4-FR4 wt, Rh30) (human) (UniProt P22455); assay: flow cytometry and confocal microscopy on RMS cells

Measured: binding

B1: A8 nanobody (anti-FGFR4 sdAb, NaLi-H1 library) (VHH, not shown: small tags and cut ends)
VHH: EVQLQASGGGFVQPGGSLRLSCAASGRTYSRDTMGWFRQAPGKEREFVSAISSRHSHTTYYADSVKGRFTISRDNSKNTVYLQMNSLRAEDTATYYCAEWDVFDMHYALPPMWYWGQGTQVTVSS
binds: [1] | [2] | [3] | [4] | [5] | [6]

B2: L-A8, VCR-loaded fluorescent liposomes decorated with nanobody A8 (protein, not shown: small tags and cut ends)
VHH: EVQLQASGGGFVQPGGSLRLSCAASGRTYSRDTMGWFRQAPGKEREFVSAISSRHSHTTYYADSVKGRFTISRDNSKNTVYLQMNSLRAEDTATYYCAEWDVFDMHYALPPMWYWGQGTQVTVSS
modifications: C-terminal cysteine coupled to DSPE-PEG-maleimide on the liposomal surface
binds: [7] | [3] | [8]
